Laboratory results from patent US10000535B2, “Template-fixed peptidomimetics” (POLYPHOR LTD., priority 2007, dated 2018).
Some entries share one result that the patent states for a list of compounds. At least one peptide structure holds a part that was inferred or is arguable (an end, a ring closure or a residue). Non-standard residues stand in square brackets, D forms with d. Residues, ends and D or L forms follow the SMILES beside them. Tic = O=C(O)[C@@H]1Cc2ccccc2CN1; Aze = O=C(O)[C@@H]1CCN1

Amino acid sequences for entries named in this document (tags omitted).
UniProt P61073, whole entry: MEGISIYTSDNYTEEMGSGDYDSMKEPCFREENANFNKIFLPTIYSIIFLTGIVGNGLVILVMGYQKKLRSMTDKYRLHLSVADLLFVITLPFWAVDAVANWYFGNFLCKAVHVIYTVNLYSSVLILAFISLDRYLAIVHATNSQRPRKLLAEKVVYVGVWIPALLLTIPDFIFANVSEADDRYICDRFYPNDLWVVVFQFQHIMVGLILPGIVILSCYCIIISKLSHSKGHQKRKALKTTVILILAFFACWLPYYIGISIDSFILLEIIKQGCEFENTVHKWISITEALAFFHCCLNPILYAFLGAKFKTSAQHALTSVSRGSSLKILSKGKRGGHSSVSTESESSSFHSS

target: CXCR4 chemokine receptor (Homo sapiens, UniProt P61073); test: Selectivity calcium flux assay, chemokine receptor panel; assay type: cell-based; settings: at 10 μM
Protocol: Selectivity was measured using the calcium flux assay on a panel of human chemokine receptor bearing cell lines (CCR1, CCR2, CCR3, CCR4, CCR5, CCR6, CCR7, CCR8, CCR9, CCR10, CXCR1, CXCR2, CXCR2, CXCR4, CXCR6 and CXCCR1) using the same method as above

SMILES | selectivity against CXCR4 chemokine receptor
NCCCC[C@@H]1NC(=O)[C@H](Cc2c[nH]c3ccccc23)NC(=O)[C@H](Cc2ccccc2)NC(=O)[C@@H]2Cc3ccccc3CN2C(=O)[C@H]2CCCN2C(=O)[C@H](Cc2ccc(O)cc2)NC1=O [Example 1] (cyclo(FWKY[dP][Tic])) | highly selective
CC[C@H](C)[C@@H]1NC(=O)[C@@H]2Cc3ccccc3CN2C(=O)[C@H]2CCCN2C(=O)[C@H](Cc2ccc(O)cc2)NC(=O)[C@H](CCCCN)NC(=O)[C@H](Cc2c[nH]c3ccccc23)NC1=O [Example 2] (cyclo(IWKY[dP][Tic])) | highly selective
NCCCC[C@@H]1NC(=O)[C@H](Cc2c[nH]c3ccccc23)NC(=O)[C@H](CCC(N)=O)NC(=O)[C@@H]2Cc3ccccc3CN2C(=O)[C@H]2CCCN2C(=O)[C@H](Cc2ccc(O)cc2)NC1=O [Example 3] (cyclo(QWKY[dP][Tic])) | highly selective
NCCCC[C@@H]1NC(=O)[C@H](Cc2c[nH]c3ccccc23)NC(=O)[C@H](Cc2ccccc2)NC(=O)[C@@H]2CCN2C(=O)[C@H]2CCCN2C(=O)[C@H](Cc2ccc(O)cc2)NC1=O [Example 4] (cyclo(FWKY[dP][Aze])) | highly selective
CC[C@H](C)[C@@H]1NC(=O)[C@@H]2CCN2C(=O)[C@H]2CCCN2C(=O)[C@H](Cc2ccc(O)cc2)NC(=O)[C@H](CCCCN)NC(=O)[C@H](Cc2c[nH]c3ccccc23)NC1=O [Example 5] (cyclo(IWKY[dP][Aze])) | highly selective
NCCCC[C@@H]1NC(=O)[C@H](Cc2c[nH]c3ccccc23)NC(=O)[C@H](CCC(N)=O)NC(=O)[C@@H]2CCN2C(=O)[C@H]2CCCN2C(=O)[C@H](Cc2ccc(O)cc2)NC1=O [Example 6] (cyclo(QWKY[dP][Aze])) | highly selective
C[C@@H](O)[C@@H]1NC(=O)[C@@H]2CCN2C(=O)[C@H]2CCCN2C(=O)[C@H](Cc2ccc(O)cc2)NC(=O)[C@H](CCCCN)NC(=O)[C@H](Cc2c[nH]c3ccccc23)NC1=O [Example 7] (cyclo(TWKY[dP][Aze])) | highly selective
COc1ccc2c3c1CNC(=O)[C@H](Cc1ccc(O)cc1)NC(=O)[C@H](CCCCN)NC(=O)[C@H](Cc1c[nH]c4ccccc14)NC(=O)[C@H](Cc1ccccc1)NC(=O)Cc1c(OC)ccc(c1O3)C2(C)C [Example 8] | highly selective
COc1ccc2c3c1CNC(=O)[C@H](Cc1ccc(O)cc1)NC(=O)[C@H](CCCCN)NC(=O)[C@H](Cc1c[nH]c4ccccc14)NC(=O)[C@H]([C@@H](C)O)NC(=O)Cc1c(OC)ccc(c1O3)C2(C)C [Example 9] | highly selective
COc1ccc2c3c1CNC(=O)[C@H](Cc1ccc(O)cc1)NC(=O)[C@H](CCCCN)NC(=O)[C@H](Cc1c[nH]c4ccccc14)NC(=O)[C@H](CCC(N)=O)NC(=O)Cc1c(OC)ccc(c1O3)C2(C)C [Example 10] | highly selective
CC[C@H](C)[C@@H]1NC(=O)Cc2c(OC)ccc3c2Oc2c(ccc(OC)c2CNC(=O)[C@H](Cc2ccc(O)cc2)NC(=O)[C@H](CCCCN)NC(=O)[C@H](Cc2c[nH]c4ccccc24)NC1=O)C3(C)C [Example 11] | highly selective
COc1ccc2c3c1CNC(=O)[C@H](Cc1c[nH]cn1)NC(=O)[C@H](Cc1ccc(O)cc1)NC(=O)[C@H](CCCCN)NC(=O)[C@H](Cc1c[nH]c4ccccc14)NC(=O)Cc1c(OC)ccc(c1O3)C2(C)C [Example 12] | highly selective
COc1ccc2c3c1CNC(=O)[C@H](Cc1ccc(O)cc1)NC(=O)[C@H](CCCCN)NC(=O)[C@H](Cc1c[nH]c4ccccc14)NC(=O)[C@H](CCC(=O)O)NC(=O)Cc1c(OC)ccc(c1O3)C2(C)C [Example 13] | highly selective
CC[C@H](C)[C@@H]1NC(=O)C[C@@H]2NC(=O)[C@@H]3C[C@@H](CN3C2=O)NC(=O)[C@H](Cc2ccc(O)cc2)NC(=O)[C@H](CCCCN)NC(=O)[C@H](Cc2c[nH]c3ccccc23)NC1=O [Example 14] | highly selective
